This series in a line: general procedure: solution-phase peptide synthesis; DIC/HOBt; HBTU/HOBt/DIEA; HBTU/HOOBt/DIPEA; DIC/HOOBt/DIPEA. Conditions: coupling step.

Boc-(Lys(Z)-Leu4)4Lys(Z)-OBzI gave a step yield of 99.7%.

These data come from patent publication US8217142 (dated 2012).
